Assay results from PMC4122147.
No constants are given. Whether binding was seen depends on the method and setting. In cells and extracts the contact can be indirect. Some entries that bind do so weakly or less than the wild type.

The chains behind the UniProt entries cited, without tags or fusion partners. Residues count along the entry.
UniProt P35916, residues 25-1363: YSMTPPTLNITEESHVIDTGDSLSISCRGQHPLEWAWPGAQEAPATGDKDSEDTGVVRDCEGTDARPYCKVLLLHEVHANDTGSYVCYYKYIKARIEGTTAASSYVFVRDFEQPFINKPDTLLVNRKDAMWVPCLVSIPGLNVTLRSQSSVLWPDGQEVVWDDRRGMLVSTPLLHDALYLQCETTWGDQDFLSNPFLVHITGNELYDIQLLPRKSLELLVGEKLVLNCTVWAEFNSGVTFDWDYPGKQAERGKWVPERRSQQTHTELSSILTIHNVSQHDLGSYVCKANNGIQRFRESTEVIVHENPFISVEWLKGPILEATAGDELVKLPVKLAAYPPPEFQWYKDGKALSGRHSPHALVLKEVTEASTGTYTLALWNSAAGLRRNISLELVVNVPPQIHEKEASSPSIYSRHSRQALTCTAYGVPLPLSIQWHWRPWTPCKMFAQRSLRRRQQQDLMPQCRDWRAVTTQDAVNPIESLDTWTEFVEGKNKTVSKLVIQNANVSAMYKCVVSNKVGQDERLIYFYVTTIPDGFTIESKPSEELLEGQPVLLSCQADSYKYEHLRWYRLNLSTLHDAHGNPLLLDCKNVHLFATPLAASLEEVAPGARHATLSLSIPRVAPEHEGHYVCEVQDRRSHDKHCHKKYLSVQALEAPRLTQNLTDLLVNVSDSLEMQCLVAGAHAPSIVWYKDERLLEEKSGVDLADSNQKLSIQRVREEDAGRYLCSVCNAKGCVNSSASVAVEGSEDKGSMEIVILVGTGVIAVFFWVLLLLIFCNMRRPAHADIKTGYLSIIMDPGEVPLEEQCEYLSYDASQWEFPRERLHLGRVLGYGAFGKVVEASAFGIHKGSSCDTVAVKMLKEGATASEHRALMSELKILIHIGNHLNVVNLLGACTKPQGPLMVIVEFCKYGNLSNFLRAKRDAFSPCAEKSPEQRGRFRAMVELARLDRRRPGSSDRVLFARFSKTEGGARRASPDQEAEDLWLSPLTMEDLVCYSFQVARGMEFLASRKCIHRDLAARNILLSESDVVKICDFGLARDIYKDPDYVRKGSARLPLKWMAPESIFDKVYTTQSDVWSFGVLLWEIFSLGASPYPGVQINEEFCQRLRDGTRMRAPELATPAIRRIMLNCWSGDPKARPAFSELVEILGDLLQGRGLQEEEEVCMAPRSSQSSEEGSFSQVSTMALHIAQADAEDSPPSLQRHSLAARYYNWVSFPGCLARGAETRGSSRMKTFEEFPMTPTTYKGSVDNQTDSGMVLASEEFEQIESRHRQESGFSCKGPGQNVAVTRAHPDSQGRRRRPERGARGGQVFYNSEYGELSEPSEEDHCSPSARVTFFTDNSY
UniProt P35968, residues 20-1356: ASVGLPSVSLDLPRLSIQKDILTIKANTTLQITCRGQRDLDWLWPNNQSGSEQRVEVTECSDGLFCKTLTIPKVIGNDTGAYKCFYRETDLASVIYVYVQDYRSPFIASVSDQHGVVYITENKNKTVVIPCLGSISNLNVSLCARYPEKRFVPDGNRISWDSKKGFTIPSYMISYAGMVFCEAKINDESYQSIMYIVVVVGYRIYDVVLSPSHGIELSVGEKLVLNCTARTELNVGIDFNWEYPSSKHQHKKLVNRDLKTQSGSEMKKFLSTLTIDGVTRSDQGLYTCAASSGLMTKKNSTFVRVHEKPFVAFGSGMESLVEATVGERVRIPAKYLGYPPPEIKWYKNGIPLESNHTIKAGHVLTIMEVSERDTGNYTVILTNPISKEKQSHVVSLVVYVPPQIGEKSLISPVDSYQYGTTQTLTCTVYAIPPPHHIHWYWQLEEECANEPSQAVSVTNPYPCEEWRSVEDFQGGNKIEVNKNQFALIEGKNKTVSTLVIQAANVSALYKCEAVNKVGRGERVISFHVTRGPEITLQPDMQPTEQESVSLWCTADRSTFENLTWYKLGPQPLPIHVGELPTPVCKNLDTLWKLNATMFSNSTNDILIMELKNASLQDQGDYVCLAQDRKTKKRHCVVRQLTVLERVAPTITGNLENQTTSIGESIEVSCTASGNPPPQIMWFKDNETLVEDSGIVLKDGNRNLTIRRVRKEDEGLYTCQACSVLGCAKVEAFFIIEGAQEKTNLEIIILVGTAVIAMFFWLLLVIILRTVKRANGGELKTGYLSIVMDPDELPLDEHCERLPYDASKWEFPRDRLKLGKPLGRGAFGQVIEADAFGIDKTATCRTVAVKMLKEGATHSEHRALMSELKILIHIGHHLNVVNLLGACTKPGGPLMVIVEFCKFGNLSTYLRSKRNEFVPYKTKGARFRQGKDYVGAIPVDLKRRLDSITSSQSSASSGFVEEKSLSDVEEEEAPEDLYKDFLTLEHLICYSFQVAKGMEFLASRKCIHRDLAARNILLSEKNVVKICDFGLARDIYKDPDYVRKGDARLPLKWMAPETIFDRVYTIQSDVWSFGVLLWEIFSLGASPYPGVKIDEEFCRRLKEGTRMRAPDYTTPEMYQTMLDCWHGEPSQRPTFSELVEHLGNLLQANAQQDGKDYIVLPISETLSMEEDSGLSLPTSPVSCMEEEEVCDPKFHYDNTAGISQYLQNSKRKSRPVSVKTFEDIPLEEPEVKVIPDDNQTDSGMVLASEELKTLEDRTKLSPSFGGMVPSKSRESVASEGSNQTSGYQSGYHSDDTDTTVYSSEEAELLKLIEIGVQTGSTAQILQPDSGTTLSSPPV

Molecular target: VEGF receptor 3 (human (endogenous in L-LECs)) (UniProt P35916)
Experiment: co-IP; VEGFR-3 immunoprecipitated from RIPA lysates of L-LECs, with and without Slit2N incubation; Western blot for VEGFR-2 and alpha 5 integrin

binding: binds weakly
Substance: VEGF receptor 2 (from UniProt P35968 20-1356)
